Values of other authors in patent EP2292241A1, “A SCUTELLARIN DERIVATIVE, THE PREPARING PROCESS, THE PHARMACEUTICAL COMPOSITION AND THE USE THEREOF” (Kunming Pharmaceutical Corp., priority 2008, dated 2009).
Like-named read-outs stand apart in the source and are kept apart here. The name of at least one read-out is uncertain.

Conditions: cited from earlier work

hydroxyacetylamide ester of scutellarin
solubility increased compared with scutellarin (in buffer solution (pH=4.2)): ~10 times
solubility increased compared with scutellarin (in water): ~35 times
